This is an account of results in PubChem BioAssay AID2685 (National Center for Advancing Translational Sciences (NCATS), 2010).

This assay can be described thus: qHTS Assay for Lipid Storage Modulators in Drosophila S3 Cells.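 On cell number change: cells counted by Cell Tracker Red CMTPX staining in the red channel.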 The conditions noted are these: BODIPY lipid droplet fluorescence, 18-24 h; for cell number change: measured here: cell count max response, cells fed with added oleic acid. The method in brief:
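Laser-scanning cytometry quantifies lipid droplet accumulation (500–530 nm total intensity; droplet/cell object ratio) in oleic acid-fed (400 uM added) Drosophila S3 cells treated with a concentration series. 20 uM Triacsin C defined 100% inhibition.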
(qHTS replaces the single test concentration by a dilution series.)

Where [1] appears, read: measured here: cell number channel AC50, cells fed with added oleic acid.
[2] abbreviates: measured here: lipid fluorescence (Fed channel) AC50, cells fed with added oleic acid.

The list shows a part of the results. Further columns of the screen follow, without active or inactive calls. The list favours compounds with an active or inconclusive main result. Potencies come from curve fits of mixed quality, noted in brackets.

As a reminder, the AC50 is the concentration at which the activity in the assay is half-maximal. Read a high AC50 as weaker potency. Regarding `c1ccc(-n2nnc3ccccc32)nc1`, the cell number change was found to be 22.6%. In addition, the AC50 under setting [1] was 3.66 µM [rising, single point].
On to `O=C(COC(=O)c1ccc(Cl)nc1)Nc1ccc2ccccc2c1`, for which the cell number change is -16.3%. Besides, the AC50 under setting [1] was 6.51 µM [rising, single point]. Moreover, under setting [2], the AC50 was 6.51 µM [rising, single point].
Turning to `Cc1c(S(=O)(=O)N2CCc3ccccc3C2)c(=O)n(C)c(=O)n1C`, the cell number change is -7.84%. For the same compound, the AC50 under setting [1] was 0.411 µM [falling, full curve]. Also, the AC50 under setting [2] was 1.3 µM [falling, full curve].
Turning to `Fc1ccccc1CNCC1CCCO1` (stereo not drawn), the cell number change is -2.46%. For the same compound, the AC50 under setting [2] was 18.4 µM [falling, single point].
`CCN(CC)CCn1nc(C)nc1-c1ccccc1O`: the cell number change is 3.67%. Besides, the AC50 under setting [2] is 0.58 µM [rising, single point].
Take `O=[N+]([O-])C1=CC=C2C(=NC3(CCCCC3)N2O)C1=NC1CCCCC1`: the cell number change was -27.2%. For the same compound, the AC50 under setting [2] is 1.84 µM [falling, partial curve].
With `O=C(Nc1ccccn1)c1ccc(CN(c2ccccc2)S(=O)(=O)c2ccccc2)cc1`, the cell number change came out at 36.4%. Further, the AC50 under setting [1] was 5.17 µM [rising, full curve, poor fit]. Also, the AC50 under setting [2] is 5.8 µM [rising, full curve, poor fit].
As for `COc1ccc(/C=N/NC(=O)c2c([N+](=O)[O-])c(C)nn2C)cc1`, the AC50 under setting [2] is 0.82 µM [falling, full curve, poor fit].
With `CCc1ccc(NS(=O)(=O)c2cc3c4c(c2)CCN4C(=O)CC3)cc1`, the cell number change turned out to be 18.5%. In addition, the half-maximal activity concentration (AC50) under setting [2] was 29.1 µM [rising, single point].
Regarding `N#C/C(=C/c1cccc([N+](=O)[O-])c1)c1nnc2n1CCCCC2`, the AC50 under setting [2] is 2.31 µM [falling, full curve].
As to `COc1cccc(NC(=O)N(CCCN2CCOCC2)C(C)c2cc3ccccc3o2)c1` (stereo not drawn), the cell number change is 7.72%. The half-maximal activity concentration (AC50) under setting [2] was 11.6 µM [rising, partial curve].
On to `Cc1ccc(OCc2cc(C(=O)N(CCO)Cc3cccs3)no2)cc1C`, for which the cell number change worked out at 30.5%. Under setting [1], the AC50 was 29.1 µM [rising, single point].
Regarding `COc1ccc(CC(=O)Nc2nccs2)cc1OC`, the cell number change was 25.7%. For the same compound, the AC50 under setting [2] was 5.17 µM [rising, partial curve].
With `CCn1c(SCc2nc3ccccc3[nH]2)nnc1-c1ccc(OC)cc1`, the cell number change is 33.9%. For the same compound, under setting [1], the AC50 was 32.6 µM [rising, single point]. Besides, the AC50 under setting [2] was 29.1 µM [rising, single point].
Turning to `Cc1c[nH]c2cccc(OCC(CNC(C)(C)C)OC(=O)c3ccccc3)c12` (stereo not drawn), the cell number change was -1.77%. Under setting [2], the half-maximal activity concentration (AC50) is 29.1 µM [rising, single point].
For the compound `O=C(CCCOc1ccccc1)N1CCN(S(=O)(=O)c2ccccc2)CC1`, the cell number change stood at 9.64%. For the same compound, the AC50 under setting [2] is 6.51 µM [rising, single point].
With `CC(=O)c1cccc(NC(=O)CN2C(=S)NC(C)(C)CC2C)c1` (stereo not drawn), the AC50 under setting [2] is 6.51 µM [falling, partial curve].
Take `CCCS(=O)(=O)N1CCC(C(=O)NC2CCCC(C)C2C)CC1` (stereo not drawn): the cell number change was -32.4%. For the same compound, the AC50 under setting [2] is 18.4 µM [rising, single point].
Turning to `CCSc1cc(N2CCCC2)nc(-c2ccc(F)cc2)n1`, the cell number change is -24.5%.
On to `COc1ccc(-n2c(CCc3ccccc3)nnc2SCC(=O)NCc2ccccc2)cc1`, for which the cell number change amounted to 41.1%. For the same compound, the AC50 under setting [1] was 14.6 µM [rising, partial curve, poor fit].
In the case of `Cc1[nH]n(-c2ccccc2)c(=O)c1N=Nc1c(O)cc(S(=O)(=O)N(C)C)c2ccccc12`, the cell number change was 28.1%. In addition, the AC50 under setting [2] was 14.6 µM [rising, partial curve].
For the compound `Cc1ccnc(Sc2ccc([N+](=O)[O-])cc2[N+](=O)[O-])n1`, the cell number change is -55.6%. For the same compound, the AC50 under setting [1] is 5.17 µM [falling, full curve, poor fit]. In addition, under setting [2], the AC50 was 29.1 µM [falling, single point].
With `CC(Sc1nnnn1C)C(=O)Nc1ccccc1-c1ccccc1` (stereo not drawn), the cell number change is -18%. The AC50 under setting [2] was 0.164 µM [falling, full curve, poor fit].
Take `Cc1cccc(-c2nc(=S)c3c(n2Cc2ccco2)CCCC3)c1`: the cell number change was 10.8%.
As to `CCCCC(=O)NC(=S)Nc1c(C)cc(Br)cc1C`, the cell number change came to 9.92%. The AC50 under setting [1] is 2.31 µM [rising, partial curve, poor fit].
`c1ccc(Nc2ccc3c4c(cccc24)CC3)cc1`: the cell number change was -44.6%. The AC50 under setting [1] was 20.6 µM [falling, single point]. Moreover, under setting [2], the AC50 was 20.6 µM [falling, single point].
Turning to `CC(=O)Nc1ccc(C(=O)OCc2ccc(F)cc2Cl)cc1`, the cell number change was -9.82%. Also, the AC50 under setting [1] was 0.731 µM [rising, full curve, poor fit]. Also, the AC50 under setting [2] was 6.51 µM [rising, partial curve, poor fit].
`CC(=O)Nc1c2c(nn1-c1cccc(Cl)c1)CS(=O)(=O)C2`: the cell number change amounted to 17.7%. Besides, under setting [2], the concentration at half-maximal activity (AC50) is 6.51 µM [falling, single point].
Regarding `Cc1ccc2nc(SCC(=O)c3c(C)[nH]c4ccccc34)[nH]c2c1`, the cell number change was -12.2%. For the same compound, under setting [2], the half-maximal activity concentration (AC50) was 29.1 µM [falling, single point].
Take `O=C(Nc1ccccc1)Nc1ccccc1-n1ccnc1`: the cell number change amounted to 29.8%. Further, under setting [2], the AC50 was 20.6 µM [rising, partial curve].
For the compound `O=C(OCCO)c1cc(Cl)c(C(=O)OCCO)cc1Cl`, the cell number change was determined as 4.33%. Moreover, the AC50 under setting [2] is 1.46 µM [falling, full curve, poor fit].
Take `O=C(C1CCN(S(=O)(=O)c2ccc(Cl)cc2)CC1)N1CCCC1`: the cell number change amounted to 3.95%. Moreover, under setting [2], the AC50 was 5.62 µM [rising, single point].
Consider `Cc1ccc(C#CC(C)(O)C(C)(C)C)cn1` (stereo not drawn), for which the AC50 under setting [1] was 0.58 µM [falling, single point].
Turning to `CCOc1ccc2[nH]c(=O)c(CN(CCO)C(=O)c3ccccc3F)cc2c1`, the cell number change was found to be 40%. The AC50 under setting [1] is 23.1 µM [rising, single point].
Turning to `COc1cccc(NC(=O)Cn2c(SCC(=O)N3CCOCC3)nc3ccccc32)c1`, the concentration at half-maximal activity (AC50) is, setting by setting: under setting [1], 1.64 µM [rising, partial curve]; under setting [2], 20.6 µM [rising, partial curve].
Take `COc1ccc(-c2nn(-c3ccccc3)cc2/C=C2/SC(=S)N(CCC(=O)O)C2=O)c(C)c1`: the cell number change was -35.7%. Moreover, under setting [1], the AC50 was 9.2 µM [falling, partial curve, poor fit]. For the same compound, the AC50 under setting [2] is 29.1 µM [falling, single point].
`O=C(CNC(=O)c1ccc(Br)cc1)NCC(=O)OCC(=O)c1ccccc1`: the cell number change was 34.4%.
In the case of `CCc1noc(C)c1C(=O)OCC(=O)Nc1ccccc1SC`, the cell number change came to 25%. Moreover, the AC50 under setting [1] was 3.26 µM [falling, single point].
With `COC(=O)c1ccc(OC(=O)c2cccs2)cc1`, the cell number change is -7.46%. Further, the AC50 under setting [1] was 5.8 µM [falling, partial curve, poor fit]. Besides, the AC50 under setting [2] is 2.06 µM [falling, partial curve, poor fit].
For `CCCc1nnc(SCC(=O)Nc2ccc3c(c2)OCCO3)n1CCOC`, the cell number change is -9.21%.
Turning to `CC(=O)Nc1ccc(S(=O)(=O)N2CCN3CCCC3C2)cc1` (stereo not drawn), the cell number change was -13%. For the same compound, the AC50 under setting [1] is 5.17 µM [falling, single point].
As for `CCN(CC(=O)Nc1c(F)cccc1F)C(=O)CCOc1ccccc1`, the cell number change worked out at 5.14%. Further, under setting [1], the AC50 is 6.51 µM [rising, single point].
As for `Cc1cc(C)cc(NC(=O)c2oc3ccccc3c2COc2ccccc2)c1`, the cell number change is 27%. The AC50 under setting [2] was 1.64 µM [rising, partial curve, poor fit].
On to `O=C(CN1C(=O)c2cccc3cccc(c23)C1=O)N1CCCCC1`, for which the cell number change turned out to be 2.19%. Also, the AC50 under setting [2] was 6.51 µM [rising, single point].
On to `O=C(C1CC(=O)N(c2ccc(F)cc2)C1)N1CCCCC1` (stereo not drawn), for which the cell number change was 19.1%. In addition, the AC50 under setting [2] was 1.16 µM [falling, single point].
For `Cc1cccc(N=Nc2c(N)n[nH]c2N)c1`, the cell number change was -24.2%. The AC50 under setting [2] was 0.651 µM [falling, partial curve, poor fit].
For the compound `Cc1cc(=O)oc2cc(OC(C)C(=O)Nc3nccs3)ccc12` (stereo not drawn), the cell number change was -4.15%. The AC50 under setting [2] is 7.31 µM [rising, partial curve, poor fit].
Turning to `COc1cc(/C=C/C(=O)OCC(=O)N(C)Cc2ccccc2)ccc1O`, the AC50 under setting [2] was 0.517 µM [falling, full curve].
With `Cc1ccc(NN2C(=O)C=C(c3ccc(Cl)cc3)C2=O)cc1`, the cell number change was -87.2%. Besides, under setting [2], the AC50 was 9.2 µM [falling, single point].
Turning to `CC[n+]1c(C)n(-c2ccccc2)c2ccc(NC(C)=O)cc21`, the cell number change is -54.2%. Besides, the AC50 under setting [1] is 29.1 µM [falling, partial curve, poor fit]. Besides, under setting [2], the AC50 is 29.1 µM [falling, single point].
For `C/C(=N\NC(=O)CCc1ccccc1)c1ccc(Br)cc1`, the AC50 under setting [1] is 3.26 µM [rising, partial curve].
Take `N=c1ccn(Cc2cccc(Cl)c2)cc1`: the cell number change is -53.7%. Besides, under setting [1], the AC50 was 6.51 µM [falling, partial curve, poor fit]. For the same compound, under setting [2], the AC50 was 9.2 µM [falling, partial curve].
For the compound `O=C(Nc1ccncc1)c1c(F)cccc1F`, the cell number change is 62.5%. Further, the AC50 under setting [1] was 7.31 µM [rising, partial curve]. Under setting [2], the AC50 is 3.66 µM [rising, single point].
On to `COc1ccc(N2CC(C(=O)Nc3nnc(C4CCCCC4)s3)CC2=O)cc1` (stereo not drawn), for which the cell number change amounted to 10.3%.
In the case of `CSc1nc2ccc(NC(=O)c3ccc(F)c(F)c3)cc2s1`, the cell number change came out at 38.3%. For the same compound, the AC50 under setting [2] is 1.03 µM [rising, partial curve, poor fit].
Turning to `NNC(=O)C1COc2cc3ccccc3cc2O1` (stereo not drawn), the cell number change amounted to 12.4%.
For `N#CC1=C(S)N(c2ccccc2)C(c2ccc(-c3cccc(Cl)c3)o2)NC1=O` (stereo not drawn), the cell number change turned out to be 67.6%. Moreover, the AC50 under setting [1] was 14.6 µM [rising, partial curve, poor fit].
On to `CN(C)CCOC(=O)C1(c2ccccc2)CCCC1`, for which the cell number change is 36.9%. Further, under setting [1], the AC50 is 2.91 µM [rising, full curve]. In addition, under setting [2], the AC50 is 6.51 µM [rising, full curve, poor fit].
In the case of `CCOC(=O)N1CCC(NC(=O)CC(NS(=O)(=O)c2ccc(C)cc2)c2ccco2)CC1` (stereo not drawn), under setting [1], the AC50 was 2.91 µM [rising, single point].
